The other results are listed elsewhere or left out.
These targets were tested with C#Cc1cccc(Nc2ncnc3cc(OCCOC)c(OCCOC)cc23)c1 [erlotinib] (assay: log2 fold change, soluble protein after heating vs DMSO (PISA); higher = thermal stabilisation; K562 lysate, 10 uM; active = over 0.2 and 3.5 SD of the protein, either way, in both replicates (recomputed)).
Outline: (§1)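 K562 pellets were dounce-homogenised in PBS pH 7.4 with 1 mM MgCl2, and the crude extract at 1 mg/mL protein was treated with 10 μM compound for 30 min. Aliquots were heated for 3 min across 48°C-58°C, pooled, and brought to 0.5% NP-40 at 4°C; soluble protein was the supernatant after 21,000xg for 90 min. Soluble protein was quantified by TMTpro 16plex LC-MS/MS with channel sums equalised, and reported as log2 fold change in thermal stability against DMSO controls, with values from duplicates.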

Chains of the proteins cited; added tags and fusions are not shown. Lines headed by an entry give the natural chain unless they say otherwise; changes in a name come on top.
UniProt Q9NS87: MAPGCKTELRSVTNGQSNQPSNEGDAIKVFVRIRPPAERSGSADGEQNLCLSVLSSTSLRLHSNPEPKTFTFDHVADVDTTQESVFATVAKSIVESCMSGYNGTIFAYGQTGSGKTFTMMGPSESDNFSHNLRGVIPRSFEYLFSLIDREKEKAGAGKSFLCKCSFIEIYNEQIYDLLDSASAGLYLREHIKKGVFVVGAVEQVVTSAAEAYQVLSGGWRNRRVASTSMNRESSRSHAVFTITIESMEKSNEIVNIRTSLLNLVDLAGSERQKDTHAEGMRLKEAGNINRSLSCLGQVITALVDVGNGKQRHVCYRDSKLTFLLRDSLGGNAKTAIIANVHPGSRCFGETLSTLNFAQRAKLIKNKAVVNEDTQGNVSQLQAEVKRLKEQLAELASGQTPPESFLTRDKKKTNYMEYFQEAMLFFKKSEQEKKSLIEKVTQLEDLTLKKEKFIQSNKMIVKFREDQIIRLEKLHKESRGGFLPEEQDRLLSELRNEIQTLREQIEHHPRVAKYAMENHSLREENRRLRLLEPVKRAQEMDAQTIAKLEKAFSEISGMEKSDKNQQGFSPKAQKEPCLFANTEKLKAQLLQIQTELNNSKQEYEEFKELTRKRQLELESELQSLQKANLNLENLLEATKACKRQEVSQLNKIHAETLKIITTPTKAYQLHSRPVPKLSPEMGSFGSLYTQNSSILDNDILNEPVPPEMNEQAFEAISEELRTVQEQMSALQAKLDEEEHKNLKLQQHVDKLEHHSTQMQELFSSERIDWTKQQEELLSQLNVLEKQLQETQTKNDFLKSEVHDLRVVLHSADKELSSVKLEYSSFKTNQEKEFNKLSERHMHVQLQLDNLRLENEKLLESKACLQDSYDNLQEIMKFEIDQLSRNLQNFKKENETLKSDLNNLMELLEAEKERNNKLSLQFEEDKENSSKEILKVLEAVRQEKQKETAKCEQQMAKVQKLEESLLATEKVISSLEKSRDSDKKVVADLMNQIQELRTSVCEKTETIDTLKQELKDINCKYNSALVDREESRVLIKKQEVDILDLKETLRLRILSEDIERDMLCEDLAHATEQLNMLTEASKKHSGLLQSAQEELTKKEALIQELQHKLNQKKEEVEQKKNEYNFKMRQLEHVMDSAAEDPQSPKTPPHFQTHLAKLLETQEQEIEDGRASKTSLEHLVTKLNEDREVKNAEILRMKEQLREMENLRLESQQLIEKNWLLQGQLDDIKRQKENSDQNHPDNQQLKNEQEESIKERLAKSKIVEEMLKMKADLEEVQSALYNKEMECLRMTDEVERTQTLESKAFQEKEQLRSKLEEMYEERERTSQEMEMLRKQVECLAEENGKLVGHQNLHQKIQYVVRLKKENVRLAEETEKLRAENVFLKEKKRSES
UniProt P83111: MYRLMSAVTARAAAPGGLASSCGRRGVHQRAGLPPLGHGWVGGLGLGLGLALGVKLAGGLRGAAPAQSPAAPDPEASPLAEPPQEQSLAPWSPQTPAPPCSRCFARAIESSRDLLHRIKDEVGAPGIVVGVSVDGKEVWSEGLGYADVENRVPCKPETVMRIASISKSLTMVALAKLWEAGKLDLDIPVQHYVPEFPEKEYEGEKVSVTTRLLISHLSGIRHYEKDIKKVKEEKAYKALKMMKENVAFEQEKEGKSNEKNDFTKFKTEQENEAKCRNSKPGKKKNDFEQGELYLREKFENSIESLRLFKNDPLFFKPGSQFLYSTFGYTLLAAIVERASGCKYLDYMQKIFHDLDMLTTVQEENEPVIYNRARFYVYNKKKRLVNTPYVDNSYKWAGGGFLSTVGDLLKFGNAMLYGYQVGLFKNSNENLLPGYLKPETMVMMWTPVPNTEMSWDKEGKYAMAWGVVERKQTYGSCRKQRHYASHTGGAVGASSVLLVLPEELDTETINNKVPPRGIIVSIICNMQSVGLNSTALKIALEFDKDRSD
UniProt Q16773: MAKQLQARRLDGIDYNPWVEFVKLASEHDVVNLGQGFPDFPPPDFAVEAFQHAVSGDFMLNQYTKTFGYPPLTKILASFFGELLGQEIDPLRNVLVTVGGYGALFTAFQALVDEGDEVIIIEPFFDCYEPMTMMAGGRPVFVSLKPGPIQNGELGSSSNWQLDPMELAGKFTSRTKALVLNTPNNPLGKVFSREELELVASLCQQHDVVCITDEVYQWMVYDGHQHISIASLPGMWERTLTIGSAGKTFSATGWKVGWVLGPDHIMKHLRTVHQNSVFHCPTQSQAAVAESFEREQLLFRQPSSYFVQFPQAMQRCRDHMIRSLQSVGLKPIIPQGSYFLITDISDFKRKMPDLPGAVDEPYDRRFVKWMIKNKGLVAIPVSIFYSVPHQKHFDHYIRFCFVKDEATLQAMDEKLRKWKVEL
UniProt O60870: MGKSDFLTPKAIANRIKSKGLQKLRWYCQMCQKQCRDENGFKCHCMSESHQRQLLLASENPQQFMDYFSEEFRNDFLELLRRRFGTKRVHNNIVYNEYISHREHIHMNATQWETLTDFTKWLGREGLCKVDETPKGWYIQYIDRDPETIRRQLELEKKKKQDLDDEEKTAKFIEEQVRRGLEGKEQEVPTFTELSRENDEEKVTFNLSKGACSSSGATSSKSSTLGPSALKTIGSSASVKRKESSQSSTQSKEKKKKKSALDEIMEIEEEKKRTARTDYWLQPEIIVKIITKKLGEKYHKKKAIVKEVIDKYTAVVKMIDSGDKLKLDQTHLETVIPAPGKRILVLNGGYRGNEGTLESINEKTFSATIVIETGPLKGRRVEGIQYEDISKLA
UniProt Q99661: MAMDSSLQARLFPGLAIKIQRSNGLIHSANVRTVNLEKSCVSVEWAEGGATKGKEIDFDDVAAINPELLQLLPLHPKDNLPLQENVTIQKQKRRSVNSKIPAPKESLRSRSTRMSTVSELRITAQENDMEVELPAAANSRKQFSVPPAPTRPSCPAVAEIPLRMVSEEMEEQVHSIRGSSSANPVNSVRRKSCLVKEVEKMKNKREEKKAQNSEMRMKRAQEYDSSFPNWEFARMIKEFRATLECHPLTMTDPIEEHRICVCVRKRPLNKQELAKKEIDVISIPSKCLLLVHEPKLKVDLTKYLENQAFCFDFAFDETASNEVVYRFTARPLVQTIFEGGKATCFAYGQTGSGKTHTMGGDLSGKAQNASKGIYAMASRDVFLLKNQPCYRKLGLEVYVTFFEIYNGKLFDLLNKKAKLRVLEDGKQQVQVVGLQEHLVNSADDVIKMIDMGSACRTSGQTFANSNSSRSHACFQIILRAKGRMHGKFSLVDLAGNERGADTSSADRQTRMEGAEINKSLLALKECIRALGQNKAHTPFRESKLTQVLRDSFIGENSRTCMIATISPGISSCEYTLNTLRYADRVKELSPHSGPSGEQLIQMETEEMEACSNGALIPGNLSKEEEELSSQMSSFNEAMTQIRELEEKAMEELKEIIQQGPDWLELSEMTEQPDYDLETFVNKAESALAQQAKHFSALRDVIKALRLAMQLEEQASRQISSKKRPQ
UniProt Q71RC2, whole entry, looked up: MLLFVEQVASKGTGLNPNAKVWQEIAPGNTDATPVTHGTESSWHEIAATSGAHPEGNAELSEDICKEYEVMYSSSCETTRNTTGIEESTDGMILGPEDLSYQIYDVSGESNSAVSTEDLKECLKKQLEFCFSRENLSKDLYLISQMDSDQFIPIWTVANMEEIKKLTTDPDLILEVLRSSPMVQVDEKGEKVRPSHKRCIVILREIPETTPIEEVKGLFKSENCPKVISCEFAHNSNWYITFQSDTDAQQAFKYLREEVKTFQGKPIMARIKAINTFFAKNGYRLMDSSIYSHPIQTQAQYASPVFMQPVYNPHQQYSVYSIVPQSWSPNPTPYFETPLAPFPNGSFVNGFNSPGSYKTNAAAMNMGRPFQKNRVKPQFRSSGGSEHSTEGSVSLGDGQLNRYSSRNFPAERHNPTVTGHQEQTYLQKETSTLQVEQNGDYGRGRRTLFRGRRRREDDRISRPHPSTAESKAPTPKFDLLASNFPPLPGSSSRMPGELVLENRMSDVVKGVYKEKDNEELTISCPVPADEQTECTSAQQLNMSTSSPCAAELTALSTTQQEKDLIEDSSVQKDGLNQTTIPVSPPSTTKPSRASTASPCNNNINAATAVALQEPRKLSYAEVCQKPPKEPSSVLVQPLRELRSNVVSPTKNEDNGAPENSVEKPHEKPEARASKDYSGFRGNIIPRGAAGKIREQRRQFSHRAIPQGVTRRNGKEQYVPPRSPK
UniProt Q12840: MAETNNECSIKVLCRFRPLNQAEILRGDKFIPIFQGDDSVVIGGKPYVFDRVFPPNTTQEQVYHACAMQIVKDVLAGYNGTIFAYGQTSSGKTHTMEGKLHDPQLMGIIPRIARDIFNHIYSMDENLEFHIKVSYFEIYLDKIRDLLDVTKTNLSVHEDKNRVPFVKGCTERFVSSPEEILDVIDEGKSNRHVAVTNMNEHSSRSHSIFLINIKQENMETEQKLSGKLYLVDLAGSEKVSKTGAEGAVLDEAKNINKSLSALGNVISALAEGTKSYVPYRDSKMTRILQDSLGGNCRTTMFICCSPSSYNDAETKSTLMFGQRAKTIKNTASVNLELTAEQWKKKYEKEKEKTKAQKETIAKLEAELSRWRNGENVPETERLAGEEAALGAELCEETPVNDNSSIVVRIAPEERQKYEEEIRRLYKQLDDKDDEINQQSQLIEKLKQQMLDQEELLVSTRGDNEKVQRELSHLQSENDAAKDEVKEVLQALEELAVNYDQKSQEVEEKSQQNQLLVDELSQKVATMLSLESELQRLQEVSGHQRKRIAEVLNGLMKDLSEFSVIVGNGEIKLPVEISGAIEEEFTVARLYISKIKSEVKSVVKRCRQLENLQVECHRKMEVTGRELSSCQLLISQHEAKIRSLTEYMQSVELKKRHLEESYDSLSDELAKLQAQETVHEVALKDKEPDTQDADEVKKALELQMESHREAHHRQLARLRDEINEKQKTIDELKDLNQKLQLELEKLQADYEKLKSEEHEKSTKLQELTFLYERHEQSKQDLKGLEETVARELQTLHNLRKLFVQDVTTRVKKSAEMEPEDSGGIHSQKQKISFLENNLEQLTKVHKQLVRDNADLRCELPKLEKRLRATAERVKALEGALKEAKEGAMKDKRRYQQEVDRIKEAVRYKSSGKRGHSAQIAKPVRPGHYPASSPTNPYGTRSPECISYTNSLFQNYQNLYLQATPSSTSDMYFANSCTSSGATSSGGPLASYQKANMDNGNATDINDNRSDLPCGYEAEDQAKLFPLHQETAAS
UniProt Q96A73: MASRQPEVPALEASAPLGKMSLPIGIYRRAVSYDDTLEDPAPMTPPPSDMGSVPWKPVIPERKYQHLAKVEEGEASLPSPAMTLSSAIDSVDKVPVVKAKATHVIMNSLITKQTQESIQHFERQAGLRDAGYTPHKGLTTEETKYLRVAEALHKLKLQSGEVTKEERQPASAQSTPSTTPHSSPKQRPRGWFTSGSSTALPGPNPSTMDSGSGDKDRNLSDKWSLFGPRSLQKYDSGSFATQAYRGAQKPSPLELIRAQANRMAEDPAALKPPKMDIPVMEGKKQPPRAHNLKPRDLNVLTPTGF
UniProt A8MWY0: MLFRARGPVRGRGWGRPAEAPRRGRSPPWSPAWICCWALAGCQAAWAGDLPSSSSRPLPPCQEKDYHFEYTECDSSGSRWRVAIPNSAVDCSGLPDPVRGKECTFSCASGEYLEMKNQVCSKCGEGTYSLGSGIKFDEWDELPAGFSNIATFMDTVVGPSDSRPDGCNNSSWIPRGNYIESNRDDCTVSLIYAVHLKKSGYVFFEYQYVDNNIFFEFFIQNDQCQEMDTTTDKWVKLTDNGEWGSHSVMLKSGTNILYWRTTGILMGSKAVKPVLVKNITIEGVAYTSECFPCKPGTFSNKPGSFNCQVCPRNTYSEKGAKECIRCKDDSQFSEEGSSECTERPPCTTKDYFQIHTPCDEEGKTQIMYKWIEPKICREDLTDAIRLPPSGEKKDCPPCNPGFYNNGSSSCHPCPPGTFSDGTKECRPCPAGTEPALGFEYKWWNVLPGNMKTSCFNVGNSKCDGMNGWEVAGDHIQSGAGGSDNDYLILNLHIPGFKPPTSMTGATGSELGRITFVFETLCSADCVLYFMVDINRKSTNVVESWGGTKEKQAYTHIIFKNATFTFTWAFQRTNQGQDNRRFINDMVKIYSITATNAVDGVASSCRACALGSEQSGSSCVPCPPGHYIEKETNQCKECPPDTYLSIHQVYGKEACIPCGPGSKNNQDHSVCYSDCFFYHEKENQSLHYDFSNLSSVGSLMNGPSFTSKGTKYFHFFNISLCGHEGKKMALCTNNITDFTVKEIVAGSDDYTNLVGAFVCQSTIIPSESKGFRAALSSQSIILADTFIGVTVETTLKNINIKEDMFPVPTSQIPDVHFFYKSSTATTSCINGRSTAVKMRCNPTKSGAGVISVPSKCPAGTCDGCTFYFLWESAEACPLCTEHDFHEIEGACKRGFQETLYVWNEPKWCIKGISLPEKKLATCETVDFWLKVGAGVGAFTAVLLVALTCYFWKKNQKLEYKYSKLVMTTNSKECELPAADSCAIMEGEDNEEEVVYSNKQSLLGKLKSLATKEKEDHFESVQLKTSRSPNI

log2 fold change, inactive:
KLHL18 (UniProt O94889) 0.019, KIF15 (UniProt Q9NS87) 0.004, KRR1 (UniProt Q13601) 0.016, LACTB (UniProt P83111) -0.02, KXD1 (UniProt Q9BQD3) -0.025, KMT2D isoform 3 (UniProt O14686) -0.004, KYAT1 (UniProt Q16773) -0.009, KIN (UniProt O60870) 0.102, LAMTOR4 (UniProt Q0VGL1) -0.024

The targets below were run with C/C(=N\NC(=O)C1=CC(=CC=C1)S(=O)(=O)N2CCOCC2)/C3=C(C=CC(=C3)Cl)O in the same assay as above.
Outline: as §1

log2 fold change, inactive:
KLHDC4 (UniProt Q8TBB5) -0.159, KIF5B (UniProt P33176) 0.007, KIAA2013 (UniProt Q8IYS2) -0.084, KIF1B isoform 2 (UniProt O60333) 0.017, KTI12 (UniProt Q96EK9) -0.066, KDSR (UniProt Q06136) 0.062, KIF2C (UniProt Q99661) 0.033, LANCL1 (UniProt O43813) 0.026, KPTN (UniProt Q9Y664) -0.003, LARP7 isoform 3 (UniProt Q4G0J3) 0.029, KDM8 isoform 3 (UniProt Q8N371) -0.383, KEAP1 (UniProt Q14145) 0.006, KLC2 (UniProt Q9H0B6) 0.065, KPNB1 (UniProt Q14974) -0.022, KSR1 (UniProt Q8IVT5) -0.099, KPNA2 (UniProt P52292) 0.03, KLHDC3 (UniProt Q9BQ90) -0.124, KYAT3 (UniProt Q6YP21) -0.088, LARP4 isoform 4 (UniProt Q71RC2) 0.028, KIF5A (UniProt Q12840) 0.011, KIAA1191 (UniProt Q96A73) 0.015, KIF2A isoform 4 (UniProt O00139) 0.02, KIAA1324L (UniProt A8MWY0) -0.001, KLHL18 (UniProt O94889) -0.01, KIF15 (UniProt Q9NS87) 0.025, KRR1 (UniProt Q13601) -0.232, LACTB (UniProt P83111) -0.05, KXD1 (UniProt Q9BQD3) 0.058, KMT2D isoform 3 (UniProt O14686) -0.022, KYAT1 (UniProt Q16773) -0.03, KIN (UniProt O60870) -0.027, LAMTOR4 (UniProt Q0VGL1) 0.011

Reference: the supplement of paper PMC10849652
